Assay results published in publication PMC5740495.
These are yes or no findings as the source states them, for the method shown. In cells and extracts the contact can be indirect. Here binding means that the protein was enriched with, or labelled near, the bait; the list need not be complete.

Protein sequences, listed by entry. Tags and fused reporters are not part of them.
UniProt P52294: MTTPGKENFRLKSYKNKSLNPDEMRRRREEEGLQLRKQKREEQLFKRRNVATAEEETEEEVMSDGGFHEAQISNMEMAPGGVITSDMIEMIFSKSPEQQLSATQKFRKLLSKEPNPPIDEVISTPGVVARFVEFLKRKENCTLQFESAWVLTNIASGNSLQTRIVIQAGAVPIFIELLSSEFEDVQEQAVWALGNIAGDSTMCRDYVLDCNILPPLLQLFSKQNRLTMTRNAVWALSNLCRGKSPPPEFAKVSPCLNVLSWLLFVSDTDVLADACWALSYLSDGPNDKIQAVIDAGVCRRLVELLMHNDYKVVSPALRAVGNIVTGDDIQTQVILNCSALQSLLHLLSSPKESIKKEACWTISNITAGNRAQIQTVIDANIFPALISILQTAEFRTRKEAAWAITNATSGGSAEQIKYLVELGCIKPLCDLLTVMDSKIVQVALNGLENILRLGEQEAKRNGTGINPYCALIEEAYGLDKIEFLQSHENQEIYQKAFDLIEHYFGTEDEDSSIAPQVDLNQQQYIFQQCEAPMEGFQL
UniProt Q9NVR2: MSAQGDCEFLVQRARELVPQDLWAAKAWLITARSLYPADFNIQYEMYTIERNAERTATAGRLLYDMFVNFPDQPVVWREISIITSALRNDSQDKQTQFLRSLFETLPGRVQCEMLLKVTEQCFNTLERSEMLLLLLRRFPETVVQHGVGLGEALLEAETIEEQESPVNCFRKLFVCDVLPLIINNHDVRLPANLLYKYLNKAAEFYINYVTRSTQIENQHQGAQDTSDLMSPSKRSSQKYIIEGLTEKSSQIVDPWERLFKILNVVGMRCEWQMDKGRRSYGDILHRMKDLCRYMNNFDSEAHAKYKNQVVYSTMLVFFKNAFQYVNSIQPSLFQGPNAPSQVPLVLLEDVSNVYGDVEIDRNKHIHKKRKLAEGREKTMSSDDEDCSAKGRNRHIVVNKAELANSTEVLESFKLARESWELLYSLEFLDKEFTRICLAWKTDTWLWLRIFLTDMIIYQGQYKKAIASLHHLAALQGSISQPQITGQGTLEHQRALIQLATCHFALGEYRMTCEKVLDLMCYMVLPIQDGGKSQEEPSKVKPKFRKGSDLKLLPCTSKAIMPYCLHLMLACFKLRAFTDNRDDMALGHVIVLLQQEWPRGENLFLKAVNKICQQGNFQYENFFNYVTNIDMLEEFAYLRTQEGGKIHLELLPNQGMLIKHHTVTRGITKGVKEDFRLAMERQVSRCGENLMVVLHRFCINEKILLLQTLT
UniProt Q5TA45: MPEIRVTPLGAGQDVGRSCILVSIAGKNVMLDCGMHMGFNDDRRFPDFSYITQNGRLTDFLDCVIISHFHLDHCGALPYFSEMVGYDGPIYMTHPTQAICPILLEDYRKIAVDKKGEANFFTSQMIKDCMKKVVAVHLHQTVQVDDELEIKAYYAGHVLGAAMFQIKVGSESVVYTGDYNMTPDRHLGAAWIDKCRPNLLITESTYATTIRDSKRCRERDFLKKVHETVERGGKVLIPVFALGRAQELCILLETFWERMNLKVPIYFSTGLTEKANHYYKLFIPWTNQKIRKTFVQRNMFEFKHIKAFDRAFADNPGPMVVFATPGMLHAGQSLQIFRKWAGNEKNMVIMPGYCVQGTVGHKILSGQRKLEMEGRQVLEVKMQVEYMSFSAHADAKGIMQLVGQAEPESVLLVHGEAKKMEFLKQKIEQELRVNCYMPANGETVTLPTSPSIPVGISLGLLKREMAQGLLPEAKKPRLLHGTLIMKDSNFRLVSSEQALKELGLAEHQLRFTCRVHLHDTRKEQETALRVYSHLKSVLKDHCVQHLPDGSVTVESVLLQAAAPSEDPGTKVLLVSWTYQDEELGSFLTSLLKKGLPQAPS
UniProt P52701: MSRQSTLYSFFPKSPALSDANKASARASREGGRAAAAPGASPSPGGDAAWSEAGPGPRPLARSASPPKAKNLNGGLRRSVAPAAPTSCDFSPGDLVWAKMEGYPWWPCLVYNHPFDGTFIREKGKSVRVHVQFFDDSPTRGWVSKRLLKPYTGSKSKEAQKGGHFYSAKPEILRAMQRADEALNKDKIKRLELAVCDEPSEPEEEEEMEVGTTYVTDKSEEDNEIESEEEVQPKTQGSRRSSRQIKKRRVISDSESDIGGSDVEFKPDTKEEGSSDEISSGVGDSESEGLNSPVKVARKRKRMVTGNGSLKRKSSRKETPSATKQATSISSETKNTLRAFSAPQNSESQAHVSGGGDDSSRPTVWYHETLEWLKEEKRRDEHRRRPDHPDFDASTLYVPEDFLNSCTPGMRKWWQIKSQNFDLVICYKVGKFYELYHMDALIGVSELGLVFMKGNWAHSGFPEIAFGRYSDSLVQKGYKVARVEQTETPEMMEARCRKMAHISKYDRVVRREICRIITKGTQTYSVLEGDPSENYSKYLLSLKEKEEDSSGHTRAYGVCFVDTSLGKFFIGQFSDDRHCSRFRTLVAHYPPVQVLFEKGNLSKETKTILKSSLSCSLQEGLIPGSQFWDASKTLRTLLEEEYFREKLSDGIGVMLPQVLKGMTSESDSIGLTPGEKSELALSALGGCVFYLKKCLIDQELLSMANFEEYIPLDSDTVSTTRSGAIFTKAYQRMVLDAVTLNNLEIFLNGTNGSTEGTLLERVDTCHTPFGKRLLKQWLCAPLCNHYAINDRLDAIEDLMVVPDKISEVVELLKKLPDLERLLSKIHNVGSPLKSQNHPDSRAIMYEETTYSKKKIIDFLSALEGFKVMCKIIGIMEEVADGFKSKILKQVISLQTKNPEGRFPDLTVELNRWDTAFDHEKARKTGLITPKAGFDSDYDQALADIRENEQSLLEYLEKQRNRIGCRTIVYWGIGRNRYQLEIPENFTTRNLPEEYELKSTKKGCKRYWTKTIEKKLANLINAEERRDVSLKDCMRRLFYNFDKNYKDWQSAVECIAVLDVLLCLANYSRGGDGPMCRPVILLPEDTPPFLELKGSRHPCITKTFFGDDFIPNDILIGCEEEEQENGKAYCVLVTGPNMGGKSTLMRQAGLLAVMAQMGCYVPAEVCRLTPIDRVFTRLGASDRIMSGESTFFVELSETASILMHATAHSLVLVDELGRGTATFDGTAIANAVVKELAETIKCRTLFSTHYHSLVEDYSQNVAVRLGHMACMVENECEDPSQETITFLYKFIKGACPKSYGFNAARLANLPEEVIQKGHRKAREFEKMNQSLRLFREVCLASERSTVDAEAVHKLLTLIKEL
UniProt Q9NTJ3: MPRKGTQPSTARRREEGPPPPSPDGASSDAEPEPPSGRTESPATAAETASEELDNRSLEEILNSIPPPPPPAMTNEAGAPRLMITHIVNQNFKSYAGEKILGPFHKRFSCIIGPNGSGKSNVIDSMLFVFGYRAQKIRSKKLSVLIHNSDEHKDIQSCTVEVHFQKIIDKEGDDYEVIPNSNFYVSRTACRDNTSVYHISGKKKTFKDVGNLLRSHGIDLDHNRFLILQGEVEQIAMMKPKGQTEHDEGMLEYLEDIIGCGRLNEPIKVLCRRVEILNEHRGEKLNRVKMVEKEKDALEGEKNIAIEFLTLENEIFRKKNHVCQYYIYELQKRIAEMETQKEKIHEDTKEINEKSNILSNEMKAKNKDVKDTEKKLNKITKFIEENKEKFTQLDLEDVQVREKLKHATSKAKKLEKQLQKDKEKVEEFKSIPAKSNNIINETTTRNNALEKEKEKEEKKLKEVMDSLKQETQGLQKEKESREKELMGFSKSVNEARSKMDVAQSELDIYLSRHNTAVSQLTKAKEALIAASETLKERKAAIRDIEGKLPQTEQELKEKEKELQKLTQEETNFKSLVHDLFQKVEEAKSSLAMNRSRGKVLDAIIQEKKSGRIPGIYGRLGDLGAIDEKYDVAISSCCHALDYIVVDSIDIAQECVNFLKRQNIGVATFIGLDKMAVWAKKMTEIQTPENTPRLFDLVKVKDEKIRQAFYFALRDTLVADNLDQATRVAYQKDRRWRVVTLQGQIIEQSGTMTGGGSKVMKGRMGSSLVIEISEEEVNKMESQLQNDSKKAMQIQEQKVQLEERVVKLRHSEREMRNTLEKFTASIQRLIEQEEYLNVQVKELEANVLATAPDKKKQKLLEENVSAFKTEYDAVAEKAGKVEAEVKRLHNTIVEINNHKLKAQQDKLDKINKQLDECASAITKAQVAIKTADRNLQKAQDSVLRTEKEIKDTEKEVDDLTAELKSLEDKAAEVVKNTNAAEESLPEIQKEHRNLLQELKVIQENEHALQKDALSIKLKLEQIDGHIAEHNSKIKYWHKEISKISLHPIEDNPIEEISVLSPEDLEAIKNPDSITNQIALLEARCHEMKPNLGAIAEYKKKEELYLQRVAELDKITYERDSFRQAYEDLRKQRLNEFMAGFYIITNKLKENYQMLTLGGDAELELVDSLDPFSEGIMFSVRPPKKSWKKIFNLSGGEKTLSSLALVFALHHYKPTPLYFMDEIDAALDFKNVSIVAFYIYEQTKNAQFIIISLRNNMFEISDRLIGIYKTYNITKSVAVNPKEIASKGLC
UniProt Q8TEX9: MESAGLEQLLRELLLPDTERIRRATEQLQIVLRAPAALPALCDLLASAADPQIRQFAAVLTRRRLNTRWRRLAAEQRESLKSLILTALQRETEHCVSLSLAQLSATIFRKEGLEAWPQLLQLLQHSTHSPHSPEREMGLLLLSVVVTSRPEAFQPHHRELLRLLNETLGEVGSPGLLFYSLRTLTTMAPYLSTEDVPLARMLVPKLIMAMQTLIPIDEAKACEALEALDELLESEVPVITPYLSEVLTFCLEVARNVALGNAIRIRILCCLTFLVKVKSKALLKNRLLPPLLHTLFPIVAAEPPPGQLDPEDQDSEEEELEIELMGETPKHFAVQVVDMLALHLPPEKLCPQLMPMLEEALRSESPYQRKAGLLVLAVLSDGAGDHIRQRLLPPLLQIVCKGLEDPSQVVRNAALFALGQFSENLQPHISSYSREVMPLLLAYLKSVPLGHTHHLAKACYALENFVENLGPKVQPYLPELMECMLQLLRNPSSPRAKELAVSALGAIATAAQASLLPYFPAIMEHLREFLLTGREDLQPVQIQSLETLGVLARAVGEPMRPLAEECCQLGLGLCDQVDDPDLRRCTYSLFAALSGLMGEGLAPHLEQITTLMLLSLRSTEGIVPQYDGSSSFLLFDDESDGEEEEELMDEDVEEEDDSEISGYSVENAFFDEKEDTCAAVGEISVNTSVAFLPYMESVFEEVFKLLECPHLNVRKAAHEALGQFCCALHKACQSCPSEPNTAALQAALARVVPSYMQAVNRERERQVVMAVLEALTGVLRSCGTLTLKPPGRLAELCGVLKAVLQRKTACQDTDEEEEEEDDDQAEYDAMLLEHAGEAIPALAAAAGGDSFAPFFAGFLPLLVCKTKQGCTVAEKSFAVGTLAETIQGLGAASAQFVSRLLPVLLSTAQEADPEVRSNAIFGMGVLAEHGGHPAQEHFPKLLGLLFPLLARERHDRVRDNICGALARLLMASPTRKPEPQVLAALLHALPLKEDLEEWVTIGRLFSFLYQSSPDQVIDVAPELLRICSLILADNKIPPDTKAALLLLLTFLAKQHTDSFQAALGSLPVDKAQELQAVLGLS
UniProt Q8N9N2: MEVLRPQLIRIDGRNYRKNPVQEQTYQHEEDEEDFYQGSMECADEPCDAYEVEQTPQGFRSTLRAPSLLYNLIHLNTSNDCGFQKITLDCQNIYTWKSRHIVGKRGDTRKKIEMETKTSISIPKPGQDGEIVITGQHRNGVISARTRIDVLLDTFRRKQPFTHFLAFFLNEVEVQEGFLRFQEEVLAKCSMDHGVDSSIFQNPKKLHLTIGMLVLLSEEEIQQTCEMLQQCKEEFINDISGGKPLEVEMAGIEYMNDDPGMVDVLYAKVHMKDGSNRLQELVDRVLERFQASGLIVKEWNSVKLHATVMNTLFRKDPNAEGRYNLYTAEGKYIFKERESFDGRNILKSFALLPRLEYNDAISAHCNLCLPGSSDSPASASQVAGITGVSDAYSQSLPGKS
UniProt Q96I24: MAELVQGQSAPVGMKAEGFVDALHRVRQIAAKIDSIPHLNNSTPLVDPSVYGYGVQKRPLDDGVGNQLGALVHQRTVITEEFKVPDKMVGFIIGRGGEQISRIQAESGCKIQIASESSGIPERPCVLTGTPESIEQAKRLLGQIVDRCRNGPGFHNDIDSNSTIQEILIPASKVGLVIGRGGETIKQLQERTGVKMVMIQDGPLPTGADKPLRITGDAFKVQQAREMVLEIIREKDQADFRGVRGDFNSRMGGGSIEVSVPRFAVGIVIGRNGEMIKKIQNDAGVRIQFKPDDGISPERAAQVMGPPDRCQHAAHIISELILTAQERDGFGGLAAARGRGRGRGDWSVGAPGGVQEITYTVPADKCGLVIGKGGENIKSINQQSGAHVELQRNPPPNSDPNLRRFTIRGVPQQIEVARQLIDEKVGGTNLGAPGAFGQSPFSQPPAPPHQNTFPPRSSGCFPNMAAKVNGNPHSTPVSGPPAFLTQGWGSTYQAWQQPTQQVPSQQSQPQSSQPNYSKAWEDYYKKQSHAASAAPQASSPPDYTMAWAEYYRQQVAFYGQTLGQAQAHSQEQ

T1: TNPO2 (human) (UniProt O14787)
T1 sequence: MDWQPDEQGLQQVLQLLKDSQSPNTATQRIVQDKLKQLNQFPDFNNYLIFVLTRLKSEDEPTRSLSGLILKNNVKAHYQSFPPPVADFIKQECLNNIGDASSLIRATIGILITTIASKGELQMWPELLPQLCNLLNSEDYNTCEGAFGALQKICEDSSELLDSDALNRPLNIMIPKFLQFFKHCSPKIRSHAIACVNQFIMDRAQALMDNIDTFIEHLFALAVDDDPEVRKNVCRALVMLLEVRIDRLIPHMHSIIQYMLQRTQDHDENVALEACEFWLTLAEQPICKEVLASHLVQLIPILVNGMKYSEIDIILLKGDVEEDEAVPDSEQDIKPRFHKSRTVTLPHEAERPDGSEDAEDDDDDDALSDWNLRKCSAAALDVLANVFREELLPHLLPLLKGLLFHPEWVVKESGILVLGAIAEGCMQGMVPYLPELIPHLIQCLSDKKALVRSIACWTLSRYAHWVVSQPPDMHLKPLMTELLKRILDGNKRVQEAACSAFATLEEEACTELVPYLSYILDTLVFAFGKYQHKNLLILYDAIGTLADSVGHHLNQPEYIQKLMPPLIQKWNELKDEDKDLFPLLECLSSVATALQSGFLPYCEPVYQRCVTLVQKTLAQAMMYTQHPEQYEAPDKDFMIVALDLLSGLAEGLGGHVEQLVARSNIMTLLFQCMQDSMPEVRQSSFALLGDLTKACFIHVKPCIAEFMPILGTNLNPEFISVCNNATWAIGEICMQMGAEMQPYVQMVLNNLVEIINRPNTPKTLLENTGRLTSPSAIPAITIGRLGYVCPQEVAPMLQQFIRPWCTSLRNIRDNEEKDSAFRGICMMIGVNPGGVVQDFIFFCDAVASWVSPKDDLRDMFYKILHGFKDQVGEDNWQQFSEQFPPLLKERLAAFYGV

B1: ELL (protein, UniProt P55199 1-621)
chain: MAALKEDRSYGLSCGRVSDGSKVSVFHVKLTDSALRAFESYRARQDSVSLRPSIRFQGSQGHISIPQPDCPAEARTFSFYLSNIGRDNPQGSFDCIQQYVSSHGEVHLDCLGSIQDKITVCATDDSYQKARQSMAQAEEETRSRSAIVIKAGGRYLGKKVQFRKPAPGATDAVPSRKRATPINLASAIRKSGASAVSGGSGVSQRPFRDRVLHLLALRPYRKAELLLRLQKDGLTQADKDALDGLLQQVANMSAKDGTCTLQDCMYKDVQKDWPGYSEGDQQLLKRVLVRKLCQPQSTGSLLGDPAASSPPGERGRSASPPQKRLQPPDFIDPLANKKPRISHFTQRAQPAVNGKLGVPNGREALLPTPGPPASTDTLSSSTHLPPRLEPPRAHDPLADVSNDLGHSGRDCEHGEAAAPAPTVRLGLPLLTDCAQPSRPHGSPSRSKPKKKSKKHKDKERAAEDKPRAQLPDCAPATHATPGAPADTPGLNGTCSVSSVPTSTSETPDYLLKYAAISSSEQRQSYKNDFNAEYSEYRDLHARIERITRRFTQLDAQLRQLSQGSEEYETTRGQILQEYRKIKKTNTNYSQEKHRCEYLHSKLAHIKRLIAEYDQRQLQAWP
B2: RRP44 (protein, UniProt Q9Y2L1 1-958)
chain: MLKSKTFLKKTRAGGVMKIVREHYLRDDIGCGAPGCAACGGAHEGPALEPQPQDPASSVCPQPHYLLPDTNVLLHQIDVLEDPAIRNVIVLQTVLQEVRNRSAPVYKRIRDVTNNQEKHFYTFTNEHHRETYVEQEQGENANDRNDRAIRVAAKWYNEHLKKMSADNQLQVIFITNDRRNKEKAIEEGIPAFTCEEYVKSLTANPELIDRLACLSEEGNEIESGKIIFSEHLPLSKLQQGIKSGTYLQGTFRASRENYLEATVWIHGDNEENKEIILQGLKHLNRAVHEDIVAVELLPKSQWVAPSSVVLHDEGQNEEDVEKEEETERMLKTAVSEKMLKPTGRVVGIIKRNWRPYCGMLSKSDIKESRRHLFTPADKRIPRIRIETRQASTLEGRRIIVAIDGWPRNSRYPNGHFVRNLGDVGEKETETEVLLLEHDVPHQPFSQAVLSFLPKMPWSITEKDMKNREDLRHLCICSVDPPGCTDIDDALHCRELENGNLEVGVHIADVSHFIRPGNALDQESARRGTTVYLCEKRIDMVPELLSSNLCSLKCDVDRLAFSCIWEMNHNAEILKTKFTKSVINSKASLTYAEAQLRIDSANMNDDITTSLRGLNKLAKILKKRRIEKGALTLSSPEVRFHMDSETHDPIDLQTKELRETNSMVEEFMLLANISVAKKIHEEFSEHALLRKHPAPPPSNYEILVKAARSRNLEIKTDTAKSLAESLDQAESPTFPYLNTLLRILATRCMMQAVYFCSGMDNDFHHYGLASPIYTHFTSPIRRYADVIVHRLLAVAIGADCTYPELTDKHKLADICKNLNFRHKMAQYAQRASVAFHTQLFFKSKGIVSEEAYILFVRKNAIVVLIPKYGLEGTVFFEEKDKPNPQLIYDDEIPSLKIEDTVFHVFDKVKVKIMLDSSNLQHQKIRMSLVEPQIPGISIPTDTSNMDLNGPKKKKMKLGK
B3: HAUS2 (protein, UniProt Q9NVX0 1-235)
chain: MAAANPWDPASAPNGAGLVLGHFIASGMVNQEMLNMSKKTVSCFVNFTRLQQITNIQAEIYQKNLEIELLKLEKDTADVVHPFFLAQKCHTLQSMNNHLEAVLKEKRSLRQRLLKPMCQENLPIEAVYHRYMVHLLELAVTFIERLETHLETIRNIPHLAANLKKMNQALAKMDILVTETEELAENILKWRKQQNEVSSCIPKILAEESYLYKHDIIMPPLPFTSKVHVQTINAK
B4: TRIP4 (protein, UniProt Q15650 1-581)
chain: MAVAGAVSGEPLVHWCTQQLRKTFGLDVSEEIIQYVLSIESAEEIREYVTDLLQGNEGKKGQFIEELITKWQKNDQELISDPLQQCFKKDEILDGQKSGDHLKRGRKKGRNRQEVPAFTEPDTTAEVKTPFDLAKAQENSNSVKKKTKFVNLYTREGQDRLAVLLPGRHPCDCLGQKHKLINNCLICGRIVCEQEGSGPCLFCGTLVCTHEEQDILQRDSNKSQKLLKKLMSGVENSGKVDISTKDLLPHQELRIKSGLEKAIKHKDKLLEFDRTSIRRTQVIDDESDYFASDSNQWLSKLERETLQKREEELRELRHASRLSKKVTIDFAGRKILEEENSLAEYHSRLDETIQAIANGTLNQPLTKLDRSSEEPLGVLVNPNMYQSPPQWVDHTGAASQKKAFRSSGFGLEFNSFQHQLRIQDQEFQEGFDGGWCLSVHQPWASLLVRGIKRVEGRSWYTPHRGRLWIAATAKKPSPQEVSELQATYRLLRGKDVEFPNDYPSGCLLGCVDLIDCLSQKQFKEQFPDISQESDSPFVFICKNPQEMVVKFPIKGNPKIWKLDSKIHQGAKKGLMKQNKAV
B5: CRTC1 (protein, UniProt Q6UUV9 1-634)
chain: MATSNNPRKFSEKIALHNQKQAEETAAFEEVMKDLSLTRAARLQLQKSQYLQLGPSRGQYYGGSLPNVNQIGSGTMDLPFQTPFQSSGLDTSRTTRHHGLVDRVYRERGRLGSPHRRPLSVDKHGRQADSCPYGTMYLSPPADTSWRRTNSDSALHQSTMTPTQPESFSSGSQDVHQKRVLLLTVPGMEETTSEADKNLSKQAWDTKKTGSRPKSCEVPGINIFPSADQENTTALIPATHNTGGSLPDLTNIHFPSPLPTPLDPEEPTFPALSSSSSTGNLAANLTHLGIGGAGQGMSTPGSSPQHRPAGVSPLSLSTEARRQQASPTLSPLSPITQAVAMDALSLEQQLPYAFFTQAGSQQPPPQPQPPPPPPPASQQPPPPPPPQAPVRLPPGGPLLPSASLTRGPQPPPLAVTVPSSLPQSPPENPGQPSMGIDIASAPALQQYRTSAGSPANQSPTSPVSNQGFSPGSSPQHTSTLGSVFGDAYYEQQMAARQANALSHQLEQFNMMENAISSSSLYSPGSTLNYSQAAMMGLTGSHGSLPDSQQLGYASHSGIPNIILTVTGESPPSLSKELTSSLAGVGDVSFDSDSQFPLDELKIDPLTLDGLHMLNDPDMVLADPATEDTFRMDRL
B6: CRTC2 (protein, UniProt Q53ET0 1-693)
chain: MATSGANGPGSATASASNPRKFSEKIALQKQRQAEETAAFEEVMMDIGSTRLQAQKLRLAYTRSSHYGGSLPNVNQIGSGLAEFQSPLHSPLDSSRSTRHHGLVERVQRDPRRMVSPLRRYTRHIDSSPYSPAYLSPPPESSWRRTMAWGNFPAEKGQLFRLPSALNRTSSDSALHTSVMNPSPQDTYPGPTPPSILPSRRGGILDGEMDPKVPAIEENLLDDKHLLKPWDAKKLSSSSSRPRSCEVPGINIFPSPDQPANVPVLPPAMNTGGSLPDLTNLHFPPPLPTPLDPEETAYPSLSGGNSTSNLTHTMTHLGISRGMGLGPGYDAPGLHSPLSHPSLQSSLSNPNLQASLSSPQPQLQGSHSHPSLPASSLARHVLPTTSLGHPSLSAPALSSSSSSSSTSSPVLGAPSYPASTPGASPHHRRVPLSPLSLLAGPADARRSQQQLPKQFSPTMSPTLSSITQGVPLDTSKLSTDQRLPPYPYSSPSLVLPTQPHTPKSLQQPGLPSQSCSVQSSGGQPPGRQSHYGTPYPPGPSGHGQQSYHRPMSDFNLGNLEQFSMESPSASLVLDPPGFSEGPGFLGGEGPMGGPQDPHTFNHQNLTHCSRHGSGPNIILTGDSSPGFSKEIAAALAGVPGFEVSAAGLELGLGLEDELRMEPLGLEGLNMLSDPCALLPDPAVEESFRSDRLQ

Target: IMA5 (human) (UniProt P52294)
Experiment: proximity labelling; BioID, large-scale, direct identification of biotinylated peptides: same NTR-BirA* lines; biotinylated peptides eluted from streptavidin beads with 80% ACN, 20% TFA after the on-bead digest, MS

binding, binds:
CHD3 (from UniProt Q12873 1-2000), CHD7 (from UniProt Q9P2D1 1-2997), CHD8 (from UniProt Q9HCK8 1-2581), CHDL1 (from UniProt Q86WJ1 1-897), EXOSC9 (from UniProt Q06265 1-439), INTS4 (from UniProt Q96HW7 1-963), INTS10 (from UniProt Q9NVR2 1-710), INTS11 (from UniProt Q5TA45 1-600), MSH6 (from UniProt P52701 1-1360), RPAC2 (from UniProt P0DPB6 1-133), RPC3 (from UniProt Q9BUI4 1-534), SMC4 (from UniProt Q9NTJ3 1-1288), B1, B2

Target: IPO4 (human) (UniProt Q8TEX9)
Experiment: as above

binding, binds:
ASCC1 (from UniProt Q8N9N2 1-400), TACC1 (from UniProt O75410 1-805), TACC3 (from UniProt Q9Y6A5 1-838), B3, B4

Target: T1, TNPO2 (human)
Experiment: as above

binding, binds:
FUBP1 (from UniProt Q96AE4 1-644), FUBP3 (from UniProt Q96I24 1-572), B5, B6
